Test results taken from PubChem BioAssay AID504327 (National Center for Advancing Translational Sciences (NCATS), 2011).
Where “and” joins values, the source holds several entries; their conditions need not be identical. Equal values may be shown once. About 820 (0.21%) of roughly 390,000 compounds were called active. Inconclusive means that the source gave no clear call. Such entries were picked first, then a sample of the others. Calls follow the shape of the dose curve; as a rule, active = well fitted inhibition curve with a large enough effect; inconclusive = small, poorly fitted or top-dose-only effect, or another doubt; inactive = no such curve, though single readings can be large or run the other way. A potency beside an inconclusive call is a rough fit, not a confirmed value.

Chains of the proteins cited; added tags and fusions are not shown.
UniProt Q92830, whole entry, looked up: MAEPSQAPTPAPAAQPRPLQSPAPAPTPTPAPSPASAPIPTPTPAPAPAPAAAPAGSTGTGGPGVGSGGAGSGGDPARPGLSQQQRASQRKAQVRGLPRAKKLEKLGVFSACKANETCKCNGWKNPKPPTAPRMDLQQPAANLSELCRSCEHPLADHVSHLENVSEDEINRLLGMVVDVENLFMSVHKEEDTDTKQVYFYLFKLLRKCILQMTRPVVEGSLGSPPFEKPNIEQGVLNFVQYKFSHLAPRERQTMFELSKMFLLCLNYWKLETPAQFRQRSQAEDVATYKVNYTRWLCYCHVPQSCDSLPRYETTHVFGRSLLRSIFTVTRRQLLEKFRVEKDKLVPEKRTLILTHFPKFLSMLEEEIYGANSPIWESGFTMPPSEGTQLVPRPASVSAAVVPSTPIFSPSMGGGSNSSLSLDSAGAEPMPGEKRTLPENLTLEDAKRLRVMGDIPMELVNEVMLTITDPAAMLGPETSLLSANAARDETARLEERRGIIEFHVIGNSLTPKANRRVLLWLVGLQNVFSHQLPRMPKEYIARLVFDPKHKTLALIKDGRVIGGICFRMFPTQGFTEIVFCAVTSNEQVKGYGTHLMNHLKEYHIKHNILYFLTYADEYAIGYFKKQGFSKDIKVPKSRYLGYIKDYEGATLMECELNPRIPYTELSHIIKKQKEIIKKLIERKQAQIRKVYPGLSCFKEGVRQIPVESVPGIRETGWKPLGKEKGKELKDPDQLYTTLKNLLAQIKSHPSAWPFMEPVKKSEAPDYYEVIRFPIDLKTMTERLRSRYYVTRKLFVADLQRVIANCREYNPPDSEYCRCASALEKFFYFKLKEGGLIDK

Target: Histone acetyltransferase KAT2A (Homo sapiens) (UniProt Q92830)
Assay: qHTS Assay for Inhibitors of GCN5L2
Details: GCN5L2 HAT assay, ThioGlo1 CoA-SH fluorescence; series mostly up to 58.9 µM
Summary of the method: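 qHTS, 1536-well. 20nM enzyme, pH 7.5 HEPES/EDTA/Tween-20 buffer; 15 min compound preinc., RT. Start: 75uM H3(1-25), 70uM AcCoA, 50uM ThioGlo1. Read Ex340/Em540 at t=0 (autofluorescence flag) and t=20 min.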
Potency is read from the fitted curve at half-maximal effect.

Which Potency does the source give for COc1ccc(NC(=O)CCS(=O)(=O)c2ccc3c(c2)oc(=O)n3C)cc1OC here?
The Potency was inconclusive: 0.158 µM [inhibitor, full curve, poor fit].

For NP(=O)(Oc1ccc(Cl)cc1)Oc1ccc(Cl)cc1, which Potency is on record?
Its Potency is inconclusive: 31.6 µM [inhibitor, single point].

Which Potency does the source give for CCN(C(C)=O)c1cccc(-c2ccnc3c(C#N)cnn23)c1 here?
The Potency was inconclusive: 31.6 µM [inhibitor, partial curve].

Which Potency does the source give for O=C1NC(=O)N(Cc2ccccc2)C(=O)/C1=C\N1CCCc2ccccc21 here?
Its Potency is inconclusive: 22.4 µM [inhibitor, single point].

For CC[C@@]1(O)C(=O)OCc2c1cc1n(c2=O)Cc2cc3cc(O)ccc3nc2-1, which Potency is on record?
Its Potency is inconclusive: 35.5 µM [inhibitor, single point].

With CC1(C)N([O-])[N+](=O)C1(C)Br (stereo not given) as the compound, how does the Potency read?
The Potency was inconclusive: 31.6 µM [inhibitor, single point].

With COc1ccc(C[C@H]2NC[C@H](O)[C@H]2OC(C)=O)cc1 as the compound, how does the Potency read?
Its Potency is “inactive”.

For CN(CCOc1ccc(C=C2C(=O)NC(=O)NC2=O)cc1)c1ccccn1, which Potency is on record?
The Potency was “inactive”.

How did the Potency turn out when Cc1nc2cnc(N3CCNCC3)nc2n(C)c1=O was run?
The Potency was inconclusive: 31.6 µM [inhibitor, single point].

With Oc1c(Cl)c(Cl)c(Cl)c(Cl)c1Cl as the compound, how does the Potency read?
The Potency was inconclusive: 39.8 µM [inhibitor, single point].

For COc1ccc2c(c1)[nH]c1c(C)nccc12, which Potency is on record?
The Potency was inconclusive: 15.8 µM [inhibitor, single point].

COc1ccc(OC)c(N2C(=O)NC(=O)/C(=C\c3ccc([N+](=O)[O-])s3)C2=O)c1 was tested. Which Potency did it give?
The Potency was inconclusive: 25.1 µM [inhibitor, single point].

For CCc1cccc(C)c1N(C(=O)CCl)C(C)COC (stereo not given), which Potency is on record?
The Potency was “inactive”.

With CC(=O)CC(C)(C)n1c[n+](C)nn1 as the compound, how does the Potency read?
The Potency was inconclusive: 0.891 µM [inhibitor, single point].

Which Potency does the source give for Cc1cc(OCC(=O)N[C@H](C(=O)O)c2ccccc2)c2c3c(c(=O)oc2c1)CCC3 here?
The Potency was inconclusive: 25.1 µM [inhibitor, partial curve, poor fit].

For CN[C@@H]1C[C@H]2O[C@@](C)([C@@H]1OC)n1c3ccccc3c3c4c(c5c6ccccc6n2c5c31)C(=O)NC4, which Potency is on record?
The Potency was inconclusive: 28.2 µM [inhibitor, single point].

How did the Potency turn out when O=C(Nc1cc(C(F)(F)F)cc(C(F)(F)F)c1)c1cc(Cl)ccc1O was run?
The Potency was inconclusive: 39.8 µM [inhibitor, single point].

For CNCCc1ccc(OC)c(OC)c1, which Potency is on record?
The Potency was inconclusive: 39.8 µM [inhibitor, single point].

With O=C(O)c1cccc2c1NC(C(=O)O)C1CC(Sc3ccccc3[N+](=O)[O-])C(Cl)C21 (stereo not given) as the compound, how does the Potency read?
Its Potency is inconclusive: 31.6 µM [inhibitor, single point].

For COC(=O)c1ccccc1NC(=O)c1cccn(Cc2cccc(Cl)c2)c1=O, which Potency is on record?
The Potency was “inactive”.

Which Potency does the source give for Cc1cccc(N2C(=O)NC(=O)/C(=C\c3cnn(-c4ccccc4)c3)C2=O)c1 here?
The Potency was inconclusive: 39.8 µM [inhibitor, single point].

For COCCCn1c(N)c(C(=O)Nc2sc3c(c2C(=O)OC)CCCC3)c2nc3ccccc3nc21, which Potency is on record?
The Potency was inconclusive: 28.2 µM [inhibitor, partial curve].

With COCCNC(=O)c1c(N)n(Cc2ccco2)c2nc3ccccc3nc12 as the compound, how does the Potency read?
The Potency was inconclusive: 31.6 µM [inhibitor, single point].

How did the Potency turn out when ClC1=C(Cl)C(Cl)(C2(Cl)C(Cl)=C(Cl)C(Cl)=C2Cl)C(Cl)=C1Cl was run?
Its Potency is inconclusive: 39.8 µM [inhibitor, single point].

With C=CCn1c(O)c(/C=C2/C=c3ccccc3=N2)c(=O)[nH]c1=S as the compound, how does the Potency read?
Its Potency is inconclusive: 25.1 µM [inhibitor, partial curve, poor fit].

For COc1ccc(N2C(=O)NC(=O)/C(=C/c3cccc(OC(=O)c4cccs4)c3)C2=O)cc1Cl, which Potency is on record?
The Potency was inconclusive: 31.6 µM [inhibitor, single point].

How did the Potency turn out when O=C(c1cc(F)ccc1F)C1CCCN(Cc2cc(Cl)ccc2O)C1 (stereo not given) was run?
The Potency was inconclusive: 0.141 µM [inhibitor, full curve, poor fit].

Which Potency does the source give for O=C1CN=C(c2ccccc2)c2cc([N+](=O)[O-])ccc2N1 here?
The Potency was inconclusive: 39.8 µM [inhibitor, partial curve].

For CN1C(=O)COc2c(C(=O)NC3CN4CCC3CC4)cc(Cl)cc21 (stereo not given), which Potency is on record?
Its Potency is inconclusive: 39.8 µM [inhibitor, single point].

O=c1[nH]c(=O)n(Cl)c(=O)n1Cl was tested. Which Potency did it give?
The Potency was “inactive”.

With COc1ccccc1CN1CCN(C(=O)COc2ccccc2)CC1 as the compound, how does the Potency read?
The Potency was “inactive”.

C=C(C)[C@H]1O[C@H]2CC[C@@]3(C)[C@@](O)(CC[C@H]4[C@@H]5OC(C)(C)[C@H]6C[C@@H]7C(=C)Cc8c(Cl)cc9[nH]c(c5c9c8[C@@]76O)[C@@]43C)[C@]23O[C@@H]3[C@H]1O was tested. Which Potency did it give?
The Potency was “inactive”.

For C/C=C1\C[N@@+]2(C)CC[C@@]34C(=C(C=O)[C@H]1C[C@H]32)Nc1ccccc14, which Potency is on record?
The Potency was inconclusive: 17.8 µM [inhibitor, single point].

How did the Potency turn out when COc1cccc(OCc2cc(C(=O)N3C[C@H]4C[C@@H](C3)c3cccc(=O)n3C4)no2)c1 was run?
Its Potency is inconclusive: 3.98 µM [inhibitor, single point].

With COc1ccc(-c2cc(=NCC(=O)O)c3ccccc3o2)cc1 as the compound, how does the Potency read?
The Potency was inconclusive: 20 µM [inhibitor, partial curve].

How did the Potency turn out when Oc1ccc2c3c1O[C@H]1c4oc5ccccc5c4C[C@@]4(O)[C@@H](C2)N(CC2CC2)CC[C@]314 was run?
Its Potency is inconclusive: 0.708 µM [inhibitor, full curve, poor fit].

Which Potency does the source give for COc1ccccc1N1CCN(Cc2ccc(Br)cc2)CC1 here?
Its Potency is inconclusive: 28.2 µM [inhibitor, single point].

How did the Potency turn out when CC(=O)[C@H]1CCC2C3CC=C4C[C@@H](OS(=O)(=O)O)CC[C@]4(C)C3CC[C@@]21C (stereo not given in full) was run?
Its Potency is inconclusive: 39.8 µM [inhibitor, single point].

For CN(C)C1C(=O)C(C(N)=O)C(=O)C2(O)C(=O)C3C(=O)c4c(O)cccc4C(C)(O)C3C(O)C12 (stereo not given), which Potency is on record?
The Potency was active: 10 µM.

For C[N+](C)(C)CCOC(=O)C(O)(c1ccccc1)c1ccccc1, which Potency is on record?
Its Potency is inconclusive: 28.2 µM [inhibitor, single point].

Which Potency does the source give for Clc1ccc(CCC(Cn2ccnc2)Sc2c(Cl)cccc2Cl)cc1 (stereo not given) here?
The Potency was inconclusive: 28.2 µM [inhibitor, single point].

For O=C(Cc1ccccc1)N1CCN(C2CCCC2)CC1, which Potency is on record?
Its Potency is “inactive”.

With CC(C)CS(=O)(=O)C1=NN2C(=N)/C(=C\c3ccc(OC(=O)c4ccco4)cc3)C(=O)N=C2S1 as the compound, how does the Potency read?
Its Potency is inconclusive: 35.5 µM [inhibitor, single point].

CC(=O)c1ccc(OC(C)C)c(Cc2c(O)[nH]c(=S)[nH]c2=O)c1 was tested. Which Potency did it give?
The Potency was inconclusive: 39.8 µM [inhibitor, single point].

Which Potency does the source give for CCSc1nnc(NC(=O)c2cccn(Cc3ccccc3Cl)c2=O)s1 here?
The Potency was “inactive”.

CCn1c(O)c(/C=N/NC(=O)c2ccncc2)c(=O)[nH]c1=S was tested. Which Potency did it give?
The Potency was “inactive”.

For O=C(N/N=C/c1c(O)n(C2CCCCC2)c(=S)[nH]c1=O)c1ccccc1O, which Potency is on record?
The Potency was inconclusive: 39.8 µM [inhibitor, single point].

For CCCCOc1ccc(C(C)=O)cc1Cc1c(O)[nH]c(=S)[nH]c1=O, which Potency is on record?
The Potency was inconclusive: 28.2 µM [inhibitor, single point].

For CCOC(=O)C(O)(c1ccc(NC(=O)c2ccc(Cl)c(Cl)c2)cc1)C(F)(F)F (stereo not given), which Potency is on record?
Its Potency is “inactive”.

With CN1CCN(C(=O)COc2ccc(S(=O)(=O)Nc3ccc(F)cc3)cc2)CC1 as the compound, how does the Potency read?
The Potency was “inactive”.

How did the Potency turn out when O=C(O)COc1ccccc1 was run?
The Potency was inconclusive: 28.2 µM [inhibitor, single point].

With CSCC[C@H](NC(=O)[C@@H](NC(=O)CNC(=O)[C@H](CC(=O)O)NC(=O)[C@H](CCSC)NC(=O)[C@@H](N)Cc1ccc(O)cc1)[C@@H](C)O)C(=O)N[C@@H](CO)C(=O)N[C@@H](CCC(N)=O)C(=O)N[C@H](C(=O)O)C(C)C as the compound, how does the Potency read?
The Potency was “inactive”.

CC(=O)Oc1ccccc1C(=O)Nc1ncc([N+](=O)[O-])s1 was tested. Which Potency did it give?
Its Potency is inconclusive: 35.5 µM [inhibitor, single point].

Cc1[nH]ccc2c1[nH]c1cc(=O)ccc12 was tested. Which Potency did it give?
Its Potency is inconclusive: 15.8 µM [inhibitor, single point] and inconclusive: 31.6 µM [inhibitor, single point].

Which Potency does the source give for CCOC(=O)c1ccc(NC(=O)c2c(O)[nH]c(=O)[nH]c2=O)cc1 here?
The Potency was inconclusive: 39.8 µM [inhibitor, single point].

For CN(CCc1ccc(Cl)c(Cl)c1)[C@H]1CCCC[C@H]1N1CCCC1, which Potency is on record?
The Potency was inconclusive: 0.355 µM [inhibitor, full curve, poor fit].

Which Potency does the source give for COc1ccc(/C=C2/C(=O)NC(=S)N(C3CC3)C2=O)cc1CN1C(=O)c2ccccc2C1=O here?
The Potency was “inactive”.

With CCn1c(O)c(C=NCc2cccs2)c(=O)[nH]c1=O as the compound, how does the Potency read?
The Potency was “inactive”.

How did the Potency turn out when COc1ccc(N/N=C/c2c(O)n(-c3cccc(C)c3)c(=O)[nH]c2=O)cc1 was run?
The Potency was inconclusive: 15.8 µM [inhibitor, partial curve].

With COP(=S)(OC)SCn1nnc2ccccc2c1=O as the compound, how does the Potency read?
Its Potency is active: 39.8 µM.

For [Hg+][c]1ccccc1, which Potency is on record?
Its Potency is active: 0.447 µM.

Which Potency does the source give for COc1ccc(N2C(=O)/C(=C/c3cccs3)C(=O)NC2=S)cc1 here?
The Potency was “inactive”.

CCc1ccccc1N1C(=O)/C(=C/c2ccc(N3CCN(C)CC3)o2)C(=O)NC1=S was tested. Which Potency did it give?
The Potency was “inactive”.

How did the Potency turn out when CC(C)CCOC(=O)c1c(N)n(CC2CCCO2)c2nc3ccccc3nc12 (stereo not given) was run?
Its Potency is inconclusive: 22.4 µM [inhibitor, single point].

Which Potency does the source give for Cc1cc(NC(=O)CCl)no1 here?
Its Potency is “inactive”.
